According to patent publication US20150037335A1:
Results are given in words; binding and its absence hold for the method and conditions named. In cells and extracts the contact can be indirect. Some binding calls cover weakened binding; strength is not graded here.

The chains behind the UniProt entries cited, without tags or fusion partners. Residues count along the entry.
UniProt P08138, residues 29-250: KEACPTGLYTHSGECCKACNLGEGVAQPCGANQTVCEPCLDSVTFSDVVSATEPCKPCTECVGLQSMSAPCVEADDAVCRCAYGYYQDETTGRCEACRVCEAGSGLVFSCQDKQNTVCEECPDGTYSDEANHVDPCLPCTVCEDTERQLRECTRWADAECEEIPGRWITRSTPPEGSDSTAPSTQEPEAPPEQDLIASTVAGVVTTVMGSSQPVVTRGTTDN

Experiments:
[1] = molecular target: T1, NT4/5, endogenous in human plasma (human) (UniProt P34130); assay: co-immunoprecipitation from human plasma with anti-NT4/5 antibody
T1 sequence (looked up): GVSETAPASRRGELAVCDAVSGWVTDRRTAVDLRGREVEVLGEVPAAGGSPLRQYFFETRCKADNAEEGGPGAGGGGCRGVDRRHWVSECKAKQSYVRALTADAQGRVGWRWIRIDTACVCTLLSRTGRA

[2] = molecular target: T2, BDNF, endogenous in human plasma (human) (UniProt P23560); assay: co-immunoprecipitation from human plasma, LC-MS/MS
T2 sequence (looked up): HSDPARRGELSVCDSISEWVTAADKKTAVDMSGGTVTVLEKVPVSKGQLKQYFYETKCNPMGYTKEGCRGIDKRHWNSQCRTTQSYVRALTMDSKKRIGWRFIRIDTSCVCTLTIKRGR

[3] = molecular target: T2, BDNF, endogenous in human plasma (human); assay: co-immunoprecipitation from human plasma with anti-BDNF antibody

Measured: binding

soluble p75NTR neurotrophin binding protein, p75NTR(NBP), endogenous in human plasma (from UniProt P08138 29-250) (receptor)
binds: all assays above
